Article PMC10338675
These are yes or no findings as the source states them, for the method shown. In cells and extracts the contact can be indirect. Some results given as binding are weak or reduced against the parent protein; the word gives no strength. Sequences can lack the tags named with a protein.

The chains behind the UniProt entries cited, without tags or fusion partners.
UniProt Q01469: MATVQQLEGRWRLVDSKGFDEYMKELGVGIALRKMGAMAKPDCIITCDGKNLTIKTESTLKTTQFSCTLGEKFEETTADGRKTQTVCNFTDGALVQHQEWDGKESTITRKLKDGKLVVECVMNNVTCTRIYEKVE

Biological target: T1, neuroblastoma-associated small protein (NBASP), encoded by ORF1 of FAM201A, with a C-terminal FLAG tag (human) (UniProt Q5SY85)
T1 sequence: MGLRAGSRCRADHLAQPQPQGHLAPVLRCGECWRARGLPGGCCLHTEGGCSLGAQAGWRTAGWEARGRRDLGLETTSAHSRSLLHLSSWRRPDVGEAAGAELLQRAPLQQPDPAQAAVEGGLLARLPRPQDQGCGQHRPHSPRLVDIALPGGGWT
Experiment: co-IP; whole cell lysates; Dynabead Protein G Immunoprecipitation Kit; anti-FLAG and anti-HA antibodies; western blotting

binding: binds
Substance: fatty acid-binding protein 5 (FABP5) (from UniProt Q01469 1-135)
